{"source": "PubChem BioAssay AID1259254 (NCATS, 2017)", "assay": "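Genome-wide screen for genes that prevent DNA re-replication in cancer cells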 (primary screen)", "system": "human HCT116 colorectal cancer cells", "reagents": "single siRNA against human genes", "duration": "3 days", "read-out": "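Nuclei stained with Hoechst and imaged; cell-cycle phase assigned by DNA content; G2 share scaled per plate, non-targeting siRNA 0%, GMNN siRNA 100%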", "direction": "G2 robust z-score: higher = more G2 cells, more excess DNA replication", "hit rule": "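Active siRNAs have a G2 robust z of 5 or more median absolute deviations over the median, which in these data means about 38% or higher of GMNN control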", "note": "The deposit covers about 59,000 reagents; below is a part drawn at random. About 1,550 of them (2.6%) count as active. 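G2 share is only a proxy for re-replication; each gene was hit by three separate siRNAs, and active genes were retested.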 Unmarked entries are inactive. The numbers tell different reagents against one gene apart. Not all columns of the deposit are shown. Not stated in the record: the amount of reagent."}
{"target gene":"GPC1 (glypican 1)","reagent no.":1,"G2 robust z-score":-1.16}
{"target gene":"GPC1 (glypican 1)","reagent no.":2,"G2 robust z-score":-0.0985}
{"target gene":"GPC1 (glypican 1)","reagent no.":3,"G2 robust z-score":0.0643}
{"target gene":"UTY","reagent no.":1,"G2 robust z-score":-0.0689}
{"target gene":"UTY","reagent no.":2,"G2 robust z-score":-0.429}
{"target gene":"UTY","reagent no.":3,"G2 robust z-score":0.0297}
{"target gene":"UBL4A (ubiquitin like 4A)","reagent no.":1,"G2 robust z-score":1.89}
{"target gene":"UBL4A (ubiquitin like 4A)","reagent no.":2,"G2 robust z-score":3.33}
{"target gene":"UBL4A (ubiquitin like 4A)","reagent no.":3,"G2 robust z-score":-0.465}
{"target gene":"NTRK2 (neurotrophic receptor tyrosine kinase 2)","reagent no.":1,"G2 robust z-score":-0.49}
{"target gene":"NTRK2 (neurotrophic receptor tyrosine kinase 2)","reagent no.":2,"G2 robust z-score":0.357}
{"target gene":"NTRK2 (neurotrophic receptor tyrosine kinase 2)","reagent no.":3,"G2 robust z-score":0.644}
{"target gene":"GPR137C (G protein-coupled receptor 137C)","reagent no.":1,"G2 robust z-score":-0.717}
{"target gene":"GPR137C (G protein-coupled receptor 137C)","reagent no.":2,"G2 robust z-score":-0.474}
{"target gene":"GPR137C (G protein-coupled receptor 137C)","reagent no.":3,"G2 robust z-score":-1.08}
{"target gene":"MINDY1 (MINDY lysine 48 deubiquitinase 1)","reagent no.":1,"G2 robust z-score":1.93}
{"target gene":"MINDY1 (MINDY lysine 48 deubiquitinase 1)","reagent no.":2,"G2 robust z-score":1.9}
{"target gene":"MINDY1 (MINDY lysine 48 deubiquitinase 1)","reagent no.":3,"G2 robust z-score":-0.569}
{"target gene":"TECR (trans-2,3-enoyl-CoA reductase)","reagent no.":1,"G2 robust z-score":0.0983}
{"target gene":"TECR (trans-2,3-enoyl-CoA reductase)","reagent no.":2,"G2 robust z-score":-0.537}
{"target gene":"TECR (trans-2,3-enoyl-CoA reductase)","reagent no.":3,"G2 robust z-score":0.717}
{"target gene":"SPIC (Spi-C transcription factor)","reagent no.":1,"G2 robust z-score":-0.604}
{"target gene":"SPIC (Spi-C transcription factor)","reagent no.":2,"G2 robust z-score":1.54}
{"target gene":"SPIC (Spi-C transcription factor)","reagent no.":3,"G2 robust z-score":-0.408}

Copied from the list.
Result of UBL4A (ubiquitin like 4A) #2 in “G2 robust z-score”: 3.33
GPC1 (glypican 1) #1, G2 robust z-score = -1.16
